Results published in PubChem BioAssay AID445 (National Center for Advancing Translational Sciences (NCATS), 2006).
The list shows a part of the results. Shown are side measurements of this screen, not its main read-out; they come without a call. The list favours compounds with an active or inconclusive main result. Words in brackets tell the shape of the fitted curve; partial curves, single points and poor fits give uncertain potencies.

Experiment: IkB Signaling
Details: ABC-DLBCL IkBa-CBG/CBR dual luciferase ratio (green luciferase fused to IkBa over red control in OCI-Ly3 lymphoma cells), 4 h
Procedure, shortened: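 Luminescence ratio of IκBα-fused green versus native red beetle luciferase in OCI-Ly3 cells, 4 h post-doxycycline with compound; red signal alone, scaled from basal (0%) to zero light (-100%), flagged nonspecific or cytotoxic effects.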

[1] = measured here: control luc red channel unless noted
[2] = measured here: IkB-luc green channel
[3] = measured here: control luc red channel

**Q.** For `O=C(CSc1nc(-c2cccs2)nc2cc(=O)[nH]n12)Nc1ccccc1Cl`, which AC50 [1] is on record?
**A.** 39.8 µM [falling, single point]

**Q.** With `CCn1c(SCc2ccccc2F)nc(=O)c2c(C(=O)OC)cc(C3CC3)nc21` as the compound, how does the AC50 [1] read?
**A.** 39.8 µM [falling, single point]

**Q.** For `Cc1c(O)ccc(C(=O)COc2ccccc2F)c1O`, which AC50 [1] is on record?
**A.** 12.6 µM [falling, partial curve]

**Q.** Which AC50 [1] does the source give for `Cc1cccc(N2CCN(C(=O)c3ccc(NC(=O)c4nsc5ccccc45)cc3)CC2C)c1` (stereo not given) here?
**A.** 0.2 µM [falling, full curve]

**Q.** For `CCOc1ccc(Cl)cc1C1CC(=O)Nc2cc(OC)c(OC)c(OC)c21` (stereo not given), which AC50 [1] is on record?
**A.** 3.16 µM [rising, partial curve]

**Q.** Which AC50 [1] does the source give for `CCOC(=O)C1CCCN(C(=O)Cn2ncc3c([nH]c4ccc(C)cc43)c2=O)C1` (stereo not given) here?
**A.** 39.8 µM [falling, single point]

**Q.** Which AC50 [2] does the source give for `CCCC(CCC)C(=O)Nc1cccc(-c2cn3cccnc3n2)c1` here?
**A.** 0.0158 µM [falling, full curve, poor fit]

**Q.** And the AC50 [3]?
**A.** 0.251 µM [falling, full curve]

**Q.** For `COc1ccccc1CNC(=O)c1sc2nc3n(c(=O)c2c1C)CCC3`, which AC50 [1] is on record?
**A.** 39.8 µM [falling, single point]

**Q.** Which AC50 [1] does the source give for `CCOc1ccc(-c2nnc(NC(=O)c3ccc(OCC(C)C)c(OC)c3)o2)cc1` here?
**A.** 39.8 µM [falling, single point]

**Q.** Which AC50 [1] does the source give for `CCc1cnc2c(c1SCC(=O)Nc1cc(Cl)ccc1OC)c(=O)n(C)c(=O)n2C` here?
**A.** 31.6 µM [falling, single point]

**Q.** With `COc1ccc(-c2noc(CSc3nnc(-c4ccc(Cl)cc4)n3C)n2)cc1OC` as the compound, how does the AC50 [1] read?
**A.** 39.8 µM [falling, single point]

**Q.** Which AC50 [1] does the source give for `Cc1ccc(Cl)cc1NC(=O)CSc1nc(C)c(C)c(C)c1C#N` here?
**A.** 6.31 µM [rising, partial curve]

**Q.** For `CCOC(=O)c1cnc2c(C(F)(F)F)cccc2c1Nc1cccc(C(=O)OC)c1`, which AC50 [1] is on record?
**A.** 12.6 µM [falling, partial curve]

**Q.** For `O=C(c1cc(-c2ccccc2)on1)N1CCN(Cc2ccc3c(c2)OCO3)CC1`, which AC50 [1] is on record?
**A.** 12.6 µM [falling, partial curve]

**Q.** For `CN1CCN(C(=O)Nc2cccc(Cl)c2)c2cccnc21`, which AC50 [1] is on record?
**A.** 5.01 µM [rising, partial curve]

**Q.** With `Cc1ccc(CNC(=O)C2CCCN(S(=O)(=O)c3ccc4c(ccn4C)c3)C2)cc1` (stereo not given) as the compound, how does the AC50 [1] read?
**A.** 31.6 µM [falling, partial curve]

**Q.** Which AC50 [1] does the source give for `CCc1ccc(CNC(=O)C2CCN(C(=O)N3CC(CC)Oc4ccc(C)cc43)CC2)cc1` (stereo not given) here?
**A.** 10 µM [falling, partial curve]

**Q.** With `O=c1[nH]c(NCCO)nc2c1C1(CCCCC1)Cc1ccccc1-2` as the compound, how does the AC50 [1] read?
**A.** 31.6 µM [falling, single point]

**Q.** Which AC50 [1] does the source give for `O=C(NC1CCCC1)c1ccc2c(c1)N(Cc1ccccc1Cl)C(=O)c1ccccc1S2` here?
**A.** 5.01 µM [falling, partial curve]

**Q.** With `Cc1cc(C)c(NC(=O)CSc2ncc(S(=O)(=O)c3ccc(C(C)(C)C)cc3)c(=O)[nH]2)c(C)c1` as the compound, how does the AC50 [1] read?
**A.** 0.251 µM [falling, full curve, poor fit]

**Q.** With `Cc1ccc(OCc2nc(-c3ccc(C(=O)NCCc4ccc(S(N)(=O)=O)cc4)cc3)oc2C)cc1` as the compound, how does the AC50 [1] read?
**A.** 31.6 µM [rising, single point]

**Q.** For `COC(=O)c1c(NC(=O)CCCOc2ccccc2C)sc2c1CCC(C)C2` (stereo not given), which AC50 [1] is on record?
**A.** 15.8 µM [falling, single point]

**Q.** With `O=C(Cc1cccs1)Nc1nc2c(s1)CCCC2` as the compound, how does the AC50 [1] read?
**A.** 12.6 µM [falling, partial curve]

**Q.** Which AC50 [1] does the source give for `O=C(Nc1ccc2nc(SCC(=O)N3CCCC3)sc2c1)c1ccccc1F` here?
**A.** 25.1 µM [falling, single point]

**Q.** For `COc1ccc(CNC(=O)c2c(Nc3ccccc3C)sc(C(=O)c3ccccc3)c2N)cc1`, which AC50 [1] is on record?
**A.** 5.01 µM [falling, partial curve]

**Q.** With `CC1CN(C(=O)N2CCC(C(=O)NCc3ccco3)CC2)c2cc(Cl)ccc2O1` (stereo not given) as the compound, how does the AC50 [1] read?
**A.** 39.8 µM [falling, single point]

**Q.** With `COc1ccc(NC(=O)c2cc(-c3ccccc3O)no2)cc1` as the compound, how does the AC50 [1] read?
**A.** 20 µM [falling, partial curve]

**Q.** With `O=C(CSc1nc(-c2cccs2)nc2cc(=O)[nH]n12)Nc1ccc(F)cc1` as the compound, how does the AC50 [1] read?
**A.** 20 µM [falling, partial curve, poor fit]

**Q.** With `CCOc1ccc(NC(=O)CNS(=O)(=O)c2ccc(Br)s2)cc1` as the compound, how does the AC50 [1] read?
**A.** 12.6 µM [falling, partial curve]

**Q.** Which AC50 [1] does the source give for `CCOC(=O)c1sc2ccccc2c1S(=O)(=O)N1CCN(c2ccccc2)CC1` here?
**A.** 1.26 µM [rising, full curve, poor fit]

**Q.** For `CCOC(=O)CSc1nc2ccc(NC(=O)c3ccccc3)cc2s1`, which AC50 [1] is on record?
**A.** 31.6 µM [falling, single point]

**Q.** For `CCOC(=O)Cn1c(=O)oc2cc(S(=O)(=O)Nc3ccc(N(CC)CC)cc3C)ccc21`, which AC50 [2] is on record?
**A.** 6.31 µM [falling, single point]

**Q.** What about the AC50 [3] of the same compound?
**A.** 6.31 µM [falling, partial curve]

**Q.** For `Cc1ccc(C)c(N2CCN(Cc3nnc(-c4ccccc4)o3)CC2)c1`, which AC50 [1] is on record?
**A.** 39.8 µM [falling, single point]

**Q.** With `O=C(CSc1n[nH]c(-c2ccncc2)n1)c1ccccc1` as the compound, how does the AC50 [2] read?
**A.** 31.6 µM [rising, single point]

**Q.** What about the AC50 [3] of the same compound?
**A.** 20 µM [falling, partial curve]

**Q.** For `COC(=O)c1ccccc1NC(=O)CSc1nc2c(c(=O)n(C)c(=O)n2C)n1C`, which AC50 [1] is on record?
**A.** 0.1 µM [rising, full curve]

**Q.** With `Cc1ccc2cccc(NC(=O)C(C)(C)Oc3ccc(Br)cc3)c2n1` as the compound, how does the AC50 [1] read?
**A.** 3.16 µM [rising, full curve, poor fit]

**Q.** Which AC50 [1] does the source give for `CCCS(=O)(=O)Nc1cc2c(cc1NCc1ccccc1)n(C)c(=O)n2C` here?
**A.** 31.6 µM [rising, single point] [measured here: IkB-luc green channel]

**Q.** With `CCOC(=O)c1ccccc1NC(=O)Cn1c2ncccc2c(=O)n1-c1ccccc1` as the compound, how does the AC50 [1] read?
**A.** 0.0794 µM [rising, full curve, poor fit]

**Q.** With `Cc1ccc(-c2[nH]nc3c2C(c2ccoc2)C(C#N)=C(N)O3)cc1C` (stereo not given) as the compound, how does the AC50 [1] read?
**A.** 15.8 µM [falling, partial curve]

**Q.** For `COc1ccc(-n2c(Cc3cccn3C)nnc2SCC(=O)Nc2ccc(Cl)cc2)cc1`, which AC50 [1] is on record?
**A.** 15.8 µM [falling, partial curve]

**Q.** Which AC50 [1] does the source give for `Cc1nc2c(C(=O)NC(C)c3ccccc3)cnn2c(C)c1Cc1ccccc1` (stereo not given) here?
**A.** 31.6 µM [falling, single point]

**Q.** With `COC(=O)c1cc2occc2n1Cc1nc(-c2ccc(C)cc2)oc1C` as the compound, how does the AC50 [1] read?
**A.** 31.6 µM [falling, single point]

**Q.** With `CCC(=O)Nc1nnc(S(=O)(=O)N2CCc3ccccc32)s1` as the compound, how does the AC50 [1] read?
**A.** 39.8 µM [falling, single point]

**Q.** With `CSc1ccc(C2Nc3ccccc3-c3cc(C)nn32)cc1` (stereo not given) as the compound, how does the AC50 [1] read?
**A.** 39.8 µM [falling, single point]

**Q.** For `Cc1cc(C(=O)COc2nncc3ccccc23)c(C)n1C`, which AC50 [1] is on record?
**A.** 25.1 µM [rising, partial curve] [measured here: IkB-luc green channel]

**Q.** With `Cc1cccc(NC(=O)c2cc(S(=O)(=O)N3CCC4(CC3)OCCO4)ccc2F)c1` as the compound, how does the AC50 [1] read?
**A.** 15.8 µM [falling, partial curve]

**Q.** Which AC50 [1] does the source give for `COc1ccc(N2CC(NC(=O)c3ccc(S(=O)(=O)N4CCCCC4)cc3)CC2=O)cc1OC` (stereo not given) here?
**A.** 6.31 µM [rising, single point] [measured here: IkB-luc green channel]

**Q.** For `COc1cc(OC)cc(-c2nc3nc(C)c(CCC(=O)Nc4cc(F)ccc4F)c(C)n3n2)c1`, which AC50 [1] is on record?
**A.** 15.8 µM [falling, partial curve]

**Q.** For `CCOC(=O)c1ccc(NC(=O)Cn2cc(C(=O)c3ccc(Cl)cc3)c(=O)c3ccc(C)nc32)cc1`, which AC50 [1] is on record?
**A.** 12.6 µM [falling, partial curve]

**Q.** Which AC50 [1] does the source give for `COc1ccc2oc(-c3ccc(C)c(NC(=O)Cc4ccc(Cl)cc4)c3)nc2c1` here?
**A.** 12.6 µM [falling, partial curve]

**Q.** For `CCOc1cccc(C(=O)Nc2cccc(-c3nnc(-c4ccccc4)o3)c2)c1`, which AC50 [1] is on record?
**A.** 2.51 µM [falling, full curve, poor fit]

**Q.** For `Cc1nc2cc(-c3ccccc3)nn2c(C)c1CCC(=O)N1CCN(c2ccccc2)CC1`, which AC50 [1] is on record?
**A.** 3.16 µM [falling, partial curve]

**Q.** Which AC50 [1] does the source give for `O=C(NCCc1csc(-c2ccc(F)cc2)n1)c1ccc(Br)o1` here?
**A.** 20 µM [falling, partial curve]

**Q.** For `Cc1ccccc1CN1CCN(CC(=O)NCc2ccccc2Cl)C1=O`, which AC50 [1] is on record?
**A.** 10 µM [falling, partial curve]

**Q.** For `Cc1nc(C)c(C(=O)Nc2cccc(Cl)c2)o1`, which AC50 [1] is on record?
**A.** 12.6 µM [falling, partial curve]

**Q.** With `Fc1ccc2c(c1)NC(c1ccncc1)=NC(c1cccs1)=N2` as the compound, how does the AC50 [1] read?
**A.** 20 µM [falling, partial curve]

**Q.** For `Cc1oc(-c2nc3ccccc3n2C)cc1C(=O)c1ccccc1`, which AC50 [1] is on record?
**A.** 12.6 µM [falling, partial curve]

**Q.** With `COc1ccc(NC(=O)c2ccc(COc3ccccc3OC)o2)cc1OC` as the compound, how does the AC50 [1] read?
**A.** 12.6 µM [falling, partial curve]

**Q.** With `CCn1cc(C(=O)NCc2ccccc2)c(=O)c2cc(S(=O)(=O)N3CCCCCC3)ccc21` as the compound, how does the AC50 [1] read?
**A.** 7.94 µM [falling, full curve]

**Q.** For `COc1ccc(Br)cc1CNC(=O)C1CCCCN1S(=O)(=O)c1ccc(F)cc1` (stereo not given), which AC50 [1] is on record?
**A.** 31.6 µM [falling, partial curve]

**Q.** Which AC50 [1] does the source give for `Cc1ccc(OCc2nc3ccccc3n2Cc2ccccc2Cl)cc1` here?
**A.** 31.6 µM [falling, single point]

**Q.** For `COc1cccc(OCC(=O)N(Cc2nc(-c3ccc(Cl)cc3)no2)C(C)C)c1`, which AC50 [1] is on record?
**A.** 15.8 µM [falling, partial curve]
